According to the supplement of paper PMC12819154, “High-throughput peptide-centric local stability assay extends protein–ligand identification to membrane proteins, tissues and bacteria” (Nature Structural & Molecular Biology, 2025):
This is one part of the list. Most entries show no effect beyond the scatter of the controls.

Chains of the proteins cited; added tags and fusions are not shown. Lines headed by an entry give the natural chain unless they say otherwise; changes in a name come on top.
UniProt Q96K76: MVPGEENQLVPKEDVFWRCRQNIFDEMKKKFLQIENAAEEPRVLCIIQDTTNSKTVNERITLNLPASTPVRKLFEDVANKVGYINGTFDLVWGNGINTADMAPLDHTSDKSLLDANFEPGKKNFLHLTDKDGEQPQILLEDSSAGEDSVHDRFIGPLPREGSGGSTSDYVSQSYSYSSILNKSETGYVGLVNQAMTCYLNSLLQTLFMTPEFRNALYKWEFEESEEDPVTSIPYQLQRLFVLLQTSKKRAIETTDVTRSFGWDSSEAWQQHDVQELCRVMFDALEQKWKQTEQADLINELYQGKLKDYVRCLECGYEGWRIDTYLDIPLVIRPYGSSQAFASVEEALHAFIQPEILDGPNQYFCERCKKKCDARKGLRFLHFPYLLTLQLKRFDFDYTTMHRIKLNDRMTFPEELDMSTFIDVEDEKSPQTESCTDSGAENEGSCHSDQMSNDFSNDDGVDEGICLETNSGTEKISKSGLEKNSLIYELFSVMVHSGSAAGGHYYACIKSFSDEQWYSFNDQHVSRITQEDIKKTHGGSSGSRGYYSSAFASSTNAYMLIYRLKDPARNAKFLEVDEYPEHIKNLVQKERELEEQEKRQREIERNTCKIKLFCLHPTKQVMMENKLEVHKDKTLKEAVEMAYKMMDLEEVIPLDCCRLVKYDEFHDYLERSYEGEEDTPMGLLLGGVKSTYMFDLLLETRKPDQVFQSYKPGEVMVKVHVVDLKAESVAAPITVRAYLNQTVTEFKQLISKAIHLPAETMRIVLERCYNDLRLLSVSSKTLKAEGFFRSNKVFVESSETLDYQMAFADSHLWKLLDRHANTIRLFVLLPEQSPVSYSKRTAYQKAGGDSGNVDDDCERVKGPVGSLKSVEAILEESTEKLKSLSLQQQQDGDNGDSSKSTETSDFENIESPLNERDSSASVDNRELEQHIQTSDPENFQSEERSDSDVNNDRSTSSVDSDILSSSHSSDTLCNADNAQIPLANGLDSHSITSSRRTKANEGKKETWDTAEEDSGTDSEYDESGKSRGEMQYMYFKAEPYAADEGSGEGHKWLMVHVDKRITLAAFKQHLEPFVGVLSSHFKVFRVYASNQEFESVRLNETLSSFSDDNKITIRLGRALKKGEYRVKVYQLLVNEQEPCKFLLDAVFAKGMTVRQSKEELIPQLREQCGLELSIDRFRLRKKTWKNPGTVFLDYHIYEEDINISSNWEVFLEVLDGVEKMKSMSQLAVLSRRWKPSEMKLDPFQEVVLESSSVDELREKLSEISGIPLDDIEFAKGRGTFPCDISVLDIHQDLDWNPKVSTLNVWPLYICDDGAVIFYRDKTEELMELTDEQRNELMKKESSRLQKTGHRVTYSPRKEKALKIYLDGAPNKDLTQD
UniProt Q96GC9: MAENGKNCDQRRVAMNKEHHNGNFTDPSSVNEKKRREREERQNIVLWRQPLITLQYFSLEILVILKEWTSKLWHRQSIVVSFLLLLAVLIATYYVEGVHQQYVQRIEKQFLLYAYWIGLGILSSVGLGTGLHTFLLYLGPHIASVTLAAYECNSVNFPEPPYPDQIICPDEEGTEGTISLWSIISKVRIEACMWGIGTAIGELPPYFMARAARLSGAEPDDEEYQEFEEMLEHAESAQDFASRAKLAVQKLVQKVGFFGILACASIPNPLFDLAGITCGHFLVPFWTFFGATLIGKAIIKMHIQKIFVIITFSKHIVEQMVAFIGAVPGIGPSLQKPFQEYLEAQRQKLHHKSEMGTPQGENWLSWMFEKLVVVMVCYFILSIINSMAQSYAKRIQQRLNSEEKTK
UniProt Q96JM3: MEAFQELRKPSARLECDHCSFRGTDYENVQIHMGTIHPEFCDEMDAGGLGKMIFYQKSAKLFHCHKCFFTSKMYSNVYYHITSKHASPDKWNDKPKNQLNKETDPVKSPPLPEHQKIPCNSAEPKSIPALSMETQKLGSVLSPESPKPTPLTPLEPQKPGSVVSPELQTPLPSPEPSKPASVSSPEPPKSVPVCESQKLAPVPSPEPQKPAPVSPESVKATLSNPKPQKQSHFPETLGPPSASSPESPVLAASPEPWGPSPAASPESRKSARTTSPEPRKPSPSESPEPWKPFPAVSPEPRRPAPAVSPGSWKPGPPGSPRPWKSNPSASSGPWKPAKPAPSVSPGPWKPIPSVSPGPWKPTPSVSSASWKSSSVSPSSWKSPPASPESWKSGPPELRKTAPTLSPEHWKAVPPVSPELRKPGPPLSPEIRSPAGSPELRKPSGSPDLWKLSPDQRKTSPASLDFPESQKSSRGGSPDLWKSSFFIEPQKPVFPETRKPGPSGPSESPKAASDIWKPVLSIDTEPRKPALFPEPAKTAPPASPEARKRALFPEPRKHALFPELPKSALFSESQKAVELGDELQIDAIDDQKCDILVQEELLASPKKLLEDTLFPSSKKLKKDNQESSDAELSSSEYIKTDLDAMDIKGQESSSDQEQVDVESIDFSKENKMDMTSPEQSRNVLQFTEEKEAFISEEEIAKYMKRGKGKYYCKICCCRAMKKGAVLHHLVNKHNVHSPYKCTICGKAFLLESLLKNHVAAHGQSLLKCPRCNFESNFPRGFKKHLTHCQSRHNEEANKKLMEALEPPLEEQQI
UniProt Q96RU3: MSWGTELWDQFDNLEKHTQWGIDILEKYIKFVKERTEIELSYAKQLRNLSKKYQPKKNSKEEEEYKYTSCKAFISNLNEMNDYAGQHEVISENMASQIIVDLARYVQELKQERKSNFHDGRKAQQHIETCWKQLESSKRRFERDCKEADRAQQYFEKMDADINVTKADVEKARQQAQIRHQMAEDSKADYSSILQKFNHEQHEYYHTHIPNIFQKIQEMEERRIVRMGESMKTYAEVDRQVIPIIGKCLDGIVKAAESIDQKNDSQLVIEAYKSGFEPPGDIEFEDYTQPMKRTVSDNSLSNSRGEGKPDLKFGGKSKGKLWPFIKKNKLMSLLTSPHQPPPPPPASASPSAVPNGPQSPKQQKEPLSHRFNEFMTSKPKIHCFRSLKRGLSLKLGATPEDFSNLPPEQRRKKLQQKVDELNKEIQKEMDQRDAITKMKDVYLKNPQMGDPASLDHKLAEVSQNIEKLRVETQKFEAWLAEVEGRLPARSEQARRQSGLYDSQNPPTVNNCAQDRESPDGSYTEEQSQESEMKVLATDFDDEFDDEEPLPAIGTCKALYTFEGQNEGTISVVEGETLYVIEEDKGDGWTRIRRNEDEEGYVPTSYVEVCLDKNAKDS
UniProt Q96GA3: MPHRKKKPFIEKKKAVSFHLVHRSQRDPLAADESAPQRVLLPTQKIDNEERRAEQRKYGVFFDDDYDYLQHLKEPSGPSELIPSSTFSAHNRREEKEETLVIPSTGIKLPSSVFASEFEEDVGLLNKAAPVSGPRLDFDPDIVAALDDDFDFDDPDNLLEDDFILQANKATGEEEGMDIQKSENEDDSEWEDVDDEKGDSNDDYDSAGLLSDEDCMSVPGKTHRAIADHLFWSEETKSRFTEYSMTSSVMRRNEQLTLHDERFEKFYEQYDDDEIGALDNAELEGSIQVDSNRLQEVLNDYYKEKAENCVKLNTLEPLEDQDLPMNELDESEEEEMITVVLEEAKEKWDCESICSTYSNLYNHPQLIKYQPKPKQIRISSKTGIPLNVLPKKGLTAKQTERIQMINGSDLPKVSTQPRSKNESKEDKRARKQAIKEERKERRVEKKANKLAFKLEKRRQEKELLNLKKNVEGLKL
UniProt Q96MY1: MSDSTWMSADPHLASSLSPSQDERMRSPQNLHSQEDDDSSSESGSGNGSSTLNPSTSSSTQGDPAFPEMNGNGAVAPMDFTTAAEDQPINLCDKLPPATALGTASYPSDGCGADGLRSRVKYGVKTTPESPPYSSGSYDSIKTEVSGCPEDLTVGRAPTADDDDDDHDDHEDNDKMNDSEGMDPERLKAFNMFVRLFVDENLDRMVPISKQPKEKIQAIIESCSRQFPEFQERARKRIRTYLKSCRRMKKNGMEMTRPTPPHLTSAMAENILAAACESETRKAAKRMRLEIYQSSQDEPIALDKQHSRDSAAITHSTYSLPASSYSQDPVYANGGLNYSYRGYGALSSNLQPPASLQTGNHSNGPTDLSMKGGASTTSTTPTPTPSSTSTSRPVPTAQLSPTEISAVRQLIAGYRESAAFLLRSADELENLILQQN
UniProt Q96L46: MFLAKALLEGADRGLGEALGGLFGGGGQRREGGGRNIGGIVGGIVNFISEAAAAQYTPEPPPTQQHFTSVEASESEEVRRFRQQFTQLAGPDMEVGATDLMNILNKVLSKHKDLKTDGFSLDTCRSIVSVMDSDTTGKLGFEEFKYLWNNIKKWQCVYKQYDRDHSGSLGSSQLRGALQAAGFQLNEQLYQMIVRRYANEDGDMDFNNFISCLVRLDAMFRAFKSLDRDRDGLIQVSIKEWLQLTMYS
UniProt Q96HZ4: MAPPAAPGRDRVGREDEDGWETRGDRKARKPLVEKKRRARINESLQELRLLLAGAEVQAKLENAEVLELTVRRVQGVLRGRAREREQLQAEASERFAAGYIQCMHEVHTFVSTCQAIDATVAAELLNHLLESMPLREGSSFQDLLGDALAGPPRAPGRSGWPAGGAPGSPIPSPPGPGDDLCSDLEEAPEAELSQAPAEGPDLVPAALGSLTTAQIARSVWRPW
UniProt Q96QT4: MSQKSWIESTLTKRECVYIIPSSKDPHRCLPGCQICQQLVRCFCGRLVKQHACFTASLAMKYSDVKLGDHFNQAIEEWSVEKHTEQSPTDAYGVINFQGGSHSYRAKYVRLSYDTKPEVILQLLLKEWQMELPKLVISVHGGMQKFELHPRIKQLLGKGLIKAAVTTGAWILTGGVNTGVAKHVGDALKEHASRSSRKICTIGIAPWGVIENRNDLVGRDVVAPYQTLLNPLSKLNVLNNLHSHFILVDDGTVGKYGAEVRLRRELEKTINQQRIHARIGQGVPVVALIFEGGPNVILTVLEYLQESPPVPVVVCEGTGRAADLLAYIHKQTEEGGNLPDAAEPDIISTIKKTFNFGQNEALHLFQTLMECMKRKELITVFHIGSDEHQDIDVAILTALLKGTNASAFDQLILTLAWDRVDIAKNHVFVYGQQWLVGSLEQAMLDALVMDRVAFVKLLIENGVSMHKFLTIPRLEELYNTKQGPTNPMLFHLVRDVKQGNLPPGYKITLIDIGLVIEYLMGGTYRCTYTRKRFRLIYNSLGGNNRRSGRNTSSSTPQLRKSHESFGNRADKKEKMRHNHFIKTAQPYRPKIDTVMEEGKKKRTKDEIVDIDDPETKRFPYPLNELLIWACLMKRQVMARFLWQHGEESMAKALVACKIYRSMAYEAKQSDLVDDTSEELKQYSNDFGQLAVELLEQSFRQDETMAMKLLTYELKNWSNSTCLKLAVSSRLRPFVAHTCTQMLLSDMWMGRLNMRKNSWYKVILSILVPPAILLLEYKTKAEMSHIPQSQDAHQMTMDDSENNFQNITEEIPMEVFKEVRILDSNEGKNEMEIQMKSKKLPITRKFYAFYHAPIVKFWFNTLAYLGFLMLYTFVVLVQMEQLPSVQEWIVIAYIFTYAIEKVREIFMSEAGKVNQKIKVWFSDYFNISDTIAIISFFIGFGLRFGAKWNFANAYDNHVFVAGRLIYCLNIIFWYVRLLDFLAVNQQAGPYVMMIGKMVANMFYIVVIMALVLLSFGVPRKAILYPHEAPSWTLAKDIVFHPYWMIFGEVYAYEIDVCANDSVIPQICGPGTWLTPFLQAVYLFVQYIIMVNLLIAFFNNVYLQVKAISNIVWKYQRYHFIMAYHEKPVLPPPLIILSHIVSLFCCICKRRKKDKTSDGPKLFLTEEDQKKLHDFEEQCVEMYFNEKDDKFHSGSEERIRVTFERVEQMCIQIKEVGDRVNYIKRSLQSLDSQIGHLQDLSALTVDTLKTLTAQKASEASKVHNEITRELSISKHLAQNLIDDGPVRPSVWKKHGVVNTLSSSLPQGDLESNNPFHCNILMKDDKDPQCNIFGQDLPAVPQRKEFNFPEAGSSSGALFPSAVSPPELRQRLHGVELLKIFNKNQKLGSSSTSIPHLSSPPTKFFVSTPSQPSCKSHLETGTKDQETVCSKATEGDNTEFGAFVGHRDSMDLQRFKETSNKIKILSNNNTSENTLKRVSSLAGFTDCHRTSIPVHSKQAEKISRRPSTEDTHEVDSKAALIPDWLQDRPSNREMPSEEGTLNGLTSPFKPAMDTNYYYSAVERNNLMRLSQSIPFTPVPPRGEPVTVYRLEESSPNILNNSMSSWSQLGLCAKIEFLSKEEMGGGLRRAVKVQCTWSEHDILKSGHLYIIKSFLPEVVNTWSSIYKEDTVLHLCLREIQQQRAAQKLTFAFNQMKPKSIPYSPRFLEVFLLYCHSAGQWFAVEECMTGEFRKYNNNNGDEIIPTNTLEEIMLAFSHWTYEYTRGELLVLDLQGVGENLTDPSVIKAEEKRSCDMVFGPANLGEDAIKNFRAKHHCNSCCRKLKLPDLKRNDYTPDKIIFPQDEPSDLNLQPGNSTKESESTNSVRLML

What follows are targets tested with Cc1nc(Nc2ncc(C(=O)Nc3c(C)cccc3Cl)s2)cc(N2CCN(CCO)CC2)n1 [dasatinib] (assay: log2 fold change of tryptic peptide abundance, ligand vs vehicle (limited proteolysis) (log2 ratio); higher = more trypsin-susceptible (destabilized)). Details: ligand concentration: 5 uM; sample: K562 cleared lysate.

Row | Target | log2 fold change
1 | USP47 (peptide sequence: VMFDALEQK, peptide start residue: 279) (UniProt Q96K76) | -0.45
2 | CLPTM1L (peptide sequence: VNEFGESYEEK, peptide start residue: 520) (UniProt Q96KA5) | -0.0177
3 | UniProt Q96GC9 (peptide sequence: EHHNGNFTDPSSVNEKK, peptide start residue: 18) | 0.307
4 | WDR89 (peptide sequence: VHSNDSYKR, peptide start residue: 375) (UniProt Q96FK6) | 0.552
5 | SPG11 (peptide sequence: RVAELAELPVDNLVIK, peptide start residue: 1691) (UniProt Q96JI7) | 0.471
6 | TMEM41A (peptide sequence: HLQLNETSTANHIHSR, peptide start residue: 246) (UniProt Q96HV5) | 0.166
7 | UniProt Q96H86 (peptide sequence: GRPSLCAHPPVPR, peptide start residue: 158) | 0.251
8 | FAM89A (peptide sequence: VDGLPPLPK, peptide start residue: 21) (UniProt Q96GI7) | -0.282
9 | UniProt Q96JM3 (peptide sequence: SPPASPESWK, peptide start residue: 382) | -0.3
10 | PUS7 (peptide sequence: AITVQEIAVLK, peptide start residue: 297) (UniProt Q96PZ0) | -0.351
11 | ELMO2 (peptide sequence: SLSYSEILR, peptide start residue: 501) (UniProt Q96JJ3) | 0.102
12 | BOD1 (peptide sequence: LNHIFRPQIER, peptide start residue: 141) (UniProt Q96IK1) | -0.108
13 | FNBP1 (peptide sequence: QQKEPLSHR, peptide start residue: 362) (UniProt Q96RU3) | 0.201
14 | LTV1 (peptide sequence: AIADHLFWSEETK, peptide start residue: 225) (UniProt Q96GA3) | -0.0811
15 | PDLIM5 (peptide sequence: RLIEDTEDWRPR, peptide start residue: 263) (UniProt Q96HC4) | 0.0825
16 | ZFYVE19 (peptide sequence: LLAEAALELR, peptide start residue: 308) (UniProt Q96K21) | 0.137
17 | UniProt Q96MI6 (peptide sequence: GSSSSPGAADASR, peptide start residue: 39) | 0.0751
18 | SLC38A2 (peptide sequence: SHYADVDPENQNFLLESNLGKK, peptide start residue: 39) (UniProt Q96QD8) | 0.0424
19 | IFT140 (peptide sequence: TYTEDPKESIK, peptide start residue: 1348) (UniProt Q96RY7) | -0.968
20 | SNX18 (peptide sequence: GGSVPPQHHPSGPK, peptide start residue: 207) (UniProt Q96RF0) | 0.275
21 | BBS4 (peptide sequence: AAIEVYNEAAK, peptide start residue: 119) (UniProt Q96RK4) | 0.209
22 | UniProt Q96MY1 (peptide sequence: AFNMFVR, peptide start residue: 189) | 0.11
23 | USP28 (peptide sequence: CLLELNAK, peptide start residue: 952) (UniProt Q96RU2) | -0.105
24 | SCYL1 (peptide sequence: EKWSADMWR, peptide start residue: 199) (UniProt Q96KG9) | 0.112
25 | DDX11 (peptide sequence: ACPYYGSR, peptide start residue: 349) (UniProt Q96FC9) | 0.177
26 | CAPNS2 (peptide sequence: LGFEEFK, peptide start residue: 159) (UniProt Q96L46) | -0.092
27 | UniProt Q96HZ4 (peptide sequence: VGREDEDGWETR, peptide start residue: 12) | 0.531
28 | TRPM7 (peptide sequence: ATEGDNTEFGAFVGHR, peptide start residue: 1429) (UniProt Q96QT4) | -0.291
29 | IFT74 (peptide sequence: QNIEYEALK, peptide start residue: 522) (UniProt Q96LB3) | -0.597

Reprinted at random: 2 records from the list
Row | Target | log2 fold change
22 | UniProt Q96MY1 (peptide sequence: AFNMFVR, peptide start residue: 189) | 0.11
29 | IFT74 (peptide sequence: QNIEYEALK, peptide start residue: 522) (UniProt Q96LB3) | -0.597
